# Results from the supplement of paper PMC12067093, “Discovery and optimisation of a covalent ligand for TRIM25 and its application to targeted protein ubiquitination” (Chemical Science, 2025).
# This is one part of the list.
# Tests used:
# [1] = biological target: T1, POLL_Q9UGP5_73_QIVQHGGQLCPAQGPGVTHIVVDEGMDYER (UniProt Q9UGP5); assay: probe-labelled cysteine peptide fold change vs DMSO (competition) (log2 fold change); higher = less target engagement (more negative = stronger competition); settings: THP-1, incubation time: 4 h
# T1 sequence (whole entry): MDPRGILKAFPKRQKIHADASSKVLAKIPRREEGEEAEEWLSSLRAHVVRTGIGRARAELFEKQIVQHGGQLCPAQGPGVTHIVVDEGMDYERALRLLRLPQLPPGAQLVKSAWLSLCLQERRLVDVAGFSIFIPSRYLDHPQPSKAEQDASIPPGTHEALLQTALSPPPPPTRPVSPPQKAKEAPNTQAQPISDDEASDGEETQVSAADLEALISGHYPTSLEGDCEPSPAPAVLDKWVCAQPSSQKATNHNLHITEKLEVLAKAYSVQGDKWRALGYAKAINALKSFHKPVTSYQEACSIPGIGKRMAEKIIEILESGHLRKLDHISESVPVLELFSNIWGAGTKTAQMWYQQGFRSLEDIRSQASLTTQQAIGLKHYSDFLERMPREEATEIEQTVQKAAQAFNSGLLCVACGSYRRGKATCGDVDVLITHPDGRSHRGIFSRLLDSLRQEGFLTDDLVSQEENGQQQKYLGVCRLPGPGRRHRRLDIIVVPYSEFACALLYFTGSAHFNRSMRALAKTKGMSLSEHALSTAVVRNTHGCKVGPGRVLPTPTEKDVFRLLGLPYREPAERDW
# [2] = biological target: T2, PPIL2_Q13356_103_YHCPVLFTVFTNNTHIVAVR (UniProt Q13356); assay: as above; settings: THP-1, incubation time: 4 h
# T2 sequence (whole entry): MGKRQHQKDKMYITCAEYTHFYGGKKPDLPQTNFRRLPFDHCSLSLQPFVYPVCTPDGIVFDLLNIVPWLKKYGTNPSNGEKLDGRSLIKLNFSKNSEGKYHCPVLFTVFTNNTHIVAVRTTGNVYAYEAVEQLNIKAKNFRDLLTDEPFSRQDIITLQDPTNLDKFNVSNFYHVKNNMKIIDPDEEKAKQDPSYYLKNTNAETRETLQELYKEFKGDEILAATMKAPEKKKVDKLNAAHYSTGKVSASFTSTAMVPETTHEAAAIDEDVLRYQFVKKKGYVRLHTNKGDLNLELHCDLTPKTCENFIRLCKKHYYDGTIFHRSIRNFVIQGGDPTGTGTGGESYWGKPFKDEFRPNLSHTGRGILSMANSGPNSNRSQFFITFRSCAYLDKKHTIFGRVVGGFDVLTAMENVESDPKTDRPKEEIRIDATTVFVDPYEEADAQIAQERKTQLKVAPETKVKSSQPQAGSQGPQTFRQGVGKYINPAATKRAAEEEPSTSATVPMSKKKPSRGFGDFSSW
# 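Further: competitive profiling in live THP-1 cells: cysteine peptides tagged with an iodoacetamide desthiobiotin (IA-DTB) probe, intensity after compound treatment relative to DMSO-treated cells.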
smiles,measurement,setting,value
Cc1cc(C(=O)N2CCCN(C(=O)CCl)CC2)ccc1-c1ccccc1 [compound 10],probe-labelled cysteine peptide fold change,[1]; 10 µM,0.296
same,probe-labelled cysteine peptide fold change,[1]; 50 µM,0.382
same,probe-labelled cysteine peptide fold change,[2]; 10 µM,-0.148
same,probe-labelled cysteine peptide fold change,[2]; 50 µM,0.209
